In PMC8755797:
These are yes or no findings as the source states them, for the method shown. Binding seen in cells or lysates may run through a third protein. Some binding calls cover weakened binding; strength is not graded here. Sequences can lack the tags named with a protein.

T1: ING2-6×His (A. thaliana) (UniProt B3H615)
T1 sequence: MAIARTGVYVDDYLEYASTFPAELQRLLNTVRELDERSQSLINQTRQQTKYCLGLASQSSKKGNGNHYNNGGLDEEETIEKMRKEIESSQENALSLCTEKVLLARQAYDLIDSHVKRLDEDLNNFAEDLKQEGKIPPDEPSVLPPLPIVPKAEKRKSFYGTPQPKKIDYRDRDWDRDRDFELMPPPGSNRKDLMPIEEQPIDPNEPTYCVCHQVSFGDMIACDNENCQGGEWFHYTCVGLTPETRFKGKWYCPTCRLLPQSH

T2: HAM1-6×His (A. thaliana) (UniProt Q9FLF7)
T2 sequence: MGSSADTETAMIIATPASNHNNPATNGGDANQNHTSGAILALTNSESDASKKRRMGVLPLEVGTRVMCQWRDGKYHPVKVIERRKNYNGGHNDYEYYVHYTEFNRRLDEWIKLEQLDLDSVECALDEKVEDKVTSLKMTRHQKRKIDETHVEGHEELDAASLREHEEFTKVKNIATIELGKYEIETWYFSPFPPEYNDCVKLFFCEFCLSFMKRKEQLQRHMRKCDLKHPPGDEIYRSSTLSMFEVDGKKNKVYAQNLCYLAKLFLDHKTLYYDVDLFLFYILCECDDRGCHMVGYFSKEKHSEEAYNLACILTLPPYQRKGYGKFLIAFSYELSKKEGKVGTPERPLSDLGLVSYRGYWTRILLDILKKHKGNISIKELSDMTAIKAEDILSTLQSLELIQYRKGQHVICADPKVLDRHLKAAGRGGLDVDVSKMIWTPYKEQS


What was measured:
ING2-6×His (A. thaliana) [1] = molecular target: T1, ING2-6×His (A. thaliana); assay: pull-down; co-purification: Flag-HAM1, ING2-6×His and AtEAF6 co-expressed in E. coli from pST44 without the AtEPL1A sequence; cobalt resin via ING2-6×His; anti-Flag western blot
ING2-6×His (A. thaliana) [2] = molecular target: T1, ING2-6×His (A. thaliana); assay: pull-down; co-purification: Flag-HAM1, ING2-6×His, AtEPL1A and AtEAF6 co-expressed in E. coli from pST44; cobalt resin via ING2-6×His, then anti-Flag M2 resin, elution with 3×FLAG peptides
HAM1-6×His (A. thaliana) = molecular target: T2, HAM1-6×His (A. thaliana); assay: pull-down; co-purification: HAM1-6×His, Flag-AtEPL1A, AtING2 and AtEAF6 co-expressed in E. coli from polycistronic pST44; purified on Talon cobalt resin via HAM1-6×His, eluted with 150 mM imidazole; Coomassie gel, western blot for HAM1-His and Flag-AtEPL1A

Row | binding (ING2-6×His (A. thaliana) [1]) | binding (ING2-6×His (A. thaliana) [2]) | binding (HAM1-6×His (A. thaliana)) | Binder
1 | binds | binds | – | Flag-HAM1 (enzyme, UniProt Q9FLF7 1-445) MGSSADTETAMIIATPASNHNNPATNGGDANQNHTSGAILALTNSESDASKKRRMGVLPLEVGTRVMCQWRDGKYHPVKVIERRKNYNGGHNDYEYYVHYTEFNRRLDEWIKLEQLDLDSVECALDEKVEDKVTSLKMTRHQKRKIDETHVEGHEELDAASLREHEEFTKVKNIATIELGKYEIETWYFSPFPPEYNDCVKLFFCEFCLSFMKRKEQLQRHMRKCDLKHPPGDEIYRSSTLSMFEVDGKKNKVYAQNLCYLAKLFLDHKTLYYDVDLFLFYILCECDDRGCHMVGYFSKEKHSEEAYNLACILTLPPYQRKGYGKFLIAFSYELSKKEGKVGTPERPLSDLGLVSYRGYWTRILLDILKKHKGNISIKELSDMTAIKAEDILSTLQSLELIQYRKGQHVICADPKVLDRHLKAAGRGGLDVDVSKMIWTPYKEQS
2 | – | – | binds | AtING2 (protein, UniProt B3H615 1-262) MAIARTGVYVDDYLEYASTFPAELQRLLNTVRELDERSQSLINQTRQQTKYCLGLASQSSKKGNGNHYNNGGLDEEETIEKMRKEIESSQENALSLCTEKVLLARQAYDLIDSHVKRLDEDLNNFAEDLKQEGKIPPDEPSVLPPLPIVPKAEKRKSFYGTPQPKKIDYRDRDWDRDRDFELMPPPGSNRKDLMPIEEQPIDPNEPTYCVCHQVSFGDMIACDNENCQGGEWFHYTCVGLTPETRFKGKWYCPTCRLLPQSH
